Laboratory results: PubChem BioAssay AID1259405 (NCATS, 2018)

Test: 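Silenced genes that increase secreted GFP made by CHO cells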 (primary screen)
Cell system: Chinese hamster CHO-K1 ovary cells with stable secreted eGFP expression
Knock-down reagent: single siRNA against mouse genes, 0.8 pmol siRNA per well (2 µl of 400 nM stock)
Duration: 3 days
Measured: 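Percent of the per-plate non-targeting control median for intracellular GFP per well by laser scanning cytometry and for cell viability by ATP luminescence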
Reading the numbers: GFP, % of control: higher = more GFP per well, higher productivity; viability (ATP), % of control: higher = more viable cells (more ATP)
Hit rule: 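Called active when intracellular GFP, relative to negative control, is at or above 120%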
The deposit covers about 50,000 reagents; this is a part drawn at random. Over the whole deposit, about 4,000 (8%) are marked active. 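Mouse siRNA library applied to hamster cells; one well for each siRNA.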 Unmarked entries are inactive. Reagents against one gene are numbered here. Reagent sequences are not shown.

With knock-down of Mark4 #1, the record shows GFP, % of control 105; viability (ATP), % of control 74.9. Mark4 #2 gave GFP, % of control 69.8; viability (ATP), % of control 62.5. For Gm9991 #1, the entry reads GFP, % of control 69; viability (ATP), % of control 68.5. Against Gm9991 #2, the values are GFP, % of control 98.2; viability (ATP), % of control 55.5. Against Gm9991 #3, the values are GFP, % of control 118; viability (ATP), % of control 45.3. Calb2 #1 scored GFP, % of control 101; viability (ATP), % of control 121.

Calb2 #2 gave GFP, % of control 83.9; viability (ATP), % of control 71.4. With knock-down of Atp8a2 #1, the record shows GFP, % of control 86.7; viability (ATP), % of control 74.2. Against Atp8a2 #2 the deposit lists GFP, % of control 59.5; viability (ATP), % of control 92.6. After knock-down of Atp8a2 #3, the record shows GFP, % of control 13.7; viability (ATP), % of control 12.3. Apln #1 scored GFP, % of control 73.8; viability (ATP), % of control 68.3. With knock-down of Apln #2, the screen gave GFP, % of control 59.4; viability (ATP), % of control 55.2.

Against Apln #3 the deposit lists GFP, % of control 85.4; viability (ATP), % of control 72.3. Pcdhga10 #1 scored GFP, % of control 77.7; viability (ATP), % of control 65. Depletion of Pcdhga10 #2 gave: GFP, % of control 57.9; viability (ATP), % of control 69.7. Against Pcdhga10 #3 the deposit lists GFP, % of control 94.2; viability (ATP), % of control 57.5.

Already shown: 2 of the entries above.
Pcdhga10 #2 → GFP, % of control: 57.9; viability (ATP), % of control: 69.7
Pcdhga10 #3 → GFP, % of control: 94.2; viability (ATP), % of control: 57.5

More entries:
Knock-down of Padi3 #1 gave: GFP, % of control 78.6; viability (ATP), % of control 62.7. Padi3 #2 scored GFP, % of control 122 (active); viability (ATP), % of control 128. After knock-down of Padi3 #3 the results were GFP, % of control 65.4; viability (ATP), % of control 56.7. Pla2g5 #1 gave GFP, % of control 57.5; viability (ATP), % of control 76. Silencing of Pla2g5 #2 gave: GFP, % of control 72.2; viability (ATP), % of control 70.7. Pla2g5 #3 scored GFP, % of control 80.9; viability (ATP), % of control 78.4.

Knock-down of Hp1bp3 #1 gave: GFP, % of control 51.5; viability (ATP), % of control 75.5. Silencing of Hp1bp3 #2 gave: GFP, % of control 90.6; viability (ATP), % of control 80.5. Against Hp1bp3 #3, the values are GFP, % of control 96.1; viability (ATP), % of control 87.7. Rad51b #1 showed GFP, % of control 33.7; viability (ATP), % of control 29.6. Against Rad51b #2, the entry reads GFP, % of control 61.2; viability (ATP), % of control 84.9. Rad51b #3 showed GFP, % of control 64.9; viability (ATP), % of control 60.3.
